# Measurements from the supplement of paper PMC8728848.
# The other results are listed elsewhere or left out.
# B1: Flo1 (Saccharomyces cerevisiae), P32768 (protein)
# chain: SGATEACLPAGQRKSGMNINFYQYSLKDSSTYSNAAYMAYGYASKTKLGSVGGQTDISIDYNIPCVSSSGTFPCPQEDSYGNWGCKGMGACSNSQGIAYWSTDLFGFYTTPTNVTLEMTGYFLPPQTGSYTFKFATVDDSAILSVGGATAFNCCAQQQPPITSTNFTIDGIKPWGGSLPPNIEGTVYMYAGYYYPMKVVYSNAVSWGTLPISVTLPDGTTVSDDFEGYVYSFDDDLSQSNCTVPDPSNY
# Legend:
# Assay in all cases: glycan array binding signal (z-score within array); higher = stronger binding
# Details in all cases: glycan notation: IUPAC condensed, linker removed
# [1] = biological target: Fuc(a1-3)[Gal3S(b1-4)]GlcNAc6S
# How it was run: (§1)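 Arrays were curated from the Consortium for Functional Glycomics database, 3228 in total, and kept only where the protein sequence was available. Binding is expressed as a within-array Z-score. This score was averaged across arrays of the same protein sequence at different concentrations or buffers and across linkers, and negative values can be read as non-binding.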
# [2] = biological target: Fuc(a1-3)[GalNAc(b1-4)]GlcNAc
# How it was run: as §1
# [3] = biological target: Fuc(a1-3)[GalNAc(b1-4)]GlcNAc6S
# How it was run: as §1
# Fuc(a1-4)GlcNAc = biological target: Fuc(a1-4)GlcNAc
# How it was run: as §1
# Fuc(b1-3)GlcNAc = biological target: Fuc(b1-3)GlcNAc
# How it was run: as §1
# Gal(a1-2)Gal = biological target: Gal(a1-2)Gal
# How it was run: as §1
# Gal(a1-3)Gal = biological target: Gal(a1-3)Gal
# How it was run: as §1
# Gal(a1-3)Gal(b1-3)GlcNAc = biological target: Gal(a1-3)Gal(b1-3)GlcNAc
# How it was run: as §1
# [4] = biological target: Gal(a1-3)Gal(b1-3)GlcNAc(b1-2)Man
# How it was run: as §1
# [5] = biological target: Gal(a1-3)Gal(b1-3)GlcNAc(b1-2)Man(a1-3)[Gal(a1-3)Gal(b1-3)GlcNAc(b1-2)Man(a1-6)]Man(b1-4)GlcNAc(b1-4)GlcNAc
# How it was run: as §1
# [6] = biological target: Gal(a1-3)Gal(b1-3)GlcNAc(b1-3)GalNAc
# How it was run: as §1
# [7] = biological target: Gal(a1-3)Gal(b1-3)GlcNAc(b1-6)GalNAc
# How it was run: as §1
# [8] = biological target: Gal(a1-3)Gal(b1-3)[Fuc(a1-4)]GlcNAc(b1-2)Man(a1-3)[Gal(a1-3)Gal(b1-3)[Fuc(a1-4)]GlcNAc(b1-2)Man(a1-6)]Man(b1-4)GlcNAc(b1-4)GlcNAc
# How it was run: as §1
# Gal(a1-3)Gal(b1-4)Glc = biological target: Gal(a1-3)Gal(b1-4)Glc
# How it was run: as §1
# Gal(a1-3)Gal(b1-4)GlcNAc = biological target: Gal(a1-3)Gal(b1-4)GlcNAc
# How it was run: as §1
# [9] = biological target: Gal(a1-3)Gal(b1-4)GlcNAc(b1-2)Man
# How it was run: as §1
# [10] = biological target: Gal(a1-3)Gal(b1-4)GlcNAc(b1-2)Man(a1-3)[Gal(a1-3)Gal(b1-4)GlcNAc(b1-2)Man(a1-6)]Man(b1-4)GlcNAc(b1-4)GlcNAc
# How it was run: as §1
# [11] = biological target: Gal(a1-3)Gal(b1-4)GlcNAc(b1-3)GalNAc
# How it was run: as §1
# [12] = biological target: Gal(a1-3)Gal(b1-4)GlcNAc(b1-6)GalNAc
# How it was run: as §1
# [13] = biological target: Gal(a1-3)Gal(b1-4)[Fuc(a1-3)]GlcNAc
# How it was run: as §1
# [14] = biological target: Gal(a1-3)Gal(b1-4)[Fuc(a1-3)]GlcNAc(b1-2)Man(a1-3)[Gal(a1-3)Gal(b1-4)[Fuc(a1-3)]GlcNAc(b1-2)Man(a1-6)]Man(b1-4)GlcNAc(b1-4)GlcNAc
# How it was run: as §1
# Gal(a1-3)GalNAc = biological target: Gal(a1-3)GalNAc
# How it was run: as §1
# [15] = biological target: Gal(a1-3)[Gal(a1-4)]Gal(b1-4)GlcNAc
# How it was run: as §1
# [16] = biological target: Gal(a1-4)Gal(b1-3)GlcNAc(b1-2)Man(a1-3)[Gal(a1-4)Gal(b1-3)GlcNAc(b1-2)Man(a1-6)]Man(b1-4)GlcNAc(b1-4)GlcNAc
# How it was run: as §1
# Gal(a1-4)Gal(b1-4)Glc = biological target: Gal(a1-4)Gal(b1-4)Glc
# How it was run: as §1
# Gal(a1-4)Gal(b1-4)GlcNAc = biological target: Gal(a1-4)Gal(b1-4)GlcNAc
# How it was run: as §1
# [17] = biological target: Gal(a1-4)Gal(b1-4)GlcNAc(b1-2)Man(a1-3)[Gal(a1-4)Gal(b1-4)GlcNAc(b1-2)Man(a1-6)]Man(b1-4)GlcNAc(b1-4)GlcNAc
# How it was run: as §1
# [18] = biological target: Gal(a1-4)Gal(b1-4)GlcNAc(b1-3)Gal(b1-4)Glc
# How it was run: as §1
# Gal(a1-4)GlcNAc = biological target: Gal(a1-4)GlcNAc
# How it was run: as §1
# Gal(a1-6)Glc = biological target: Gal(a1-6)Glc
# How it was run: as §1
# Gal(b1-2)Gal = biological target: Gal(b1-2)Gal
# How it was run: as §1
# Gal(b1-3)Gal = biological target: Gal(b1-3)Gal
# How it was run: as §1
# Gal(b1-3)Gal(b1-4)GlcNAc = biological target: Gal(b1-3)Gal(b1-4)GlcNAc
# How it was run: as §1
# [19] = biological target: Gal(b1-3)Gal(b1-4)GlcNAc(b1-2)Man(a1-3)[Gal(b1-3)Gal(b1-4)GlcNAc(b1-2)Man(a1-6)]Man(b1-4)GlcNAc(b1-4)GlcNAc
# How it was run: as §1
# Gal(b1-3)GalNAc = biological target: Gal(b1-3)GalNAc
# How it was run: as §1
# [20] = biological target: Gal(b1-3)GalNAc(a1-3)[Fuc(a1-2)]Gal(b1-4)Glc
# How it was run: as §1
# [21] = biological target: Gal(b1-3)GalNAc(a1-3)[Fuc(a1-2)]Gal(b1-4)GlcNAc
# How it was run: as §1
# Gal(b1-3)GalNAc(b1-3)Gal = biological target: Gal(b1-3)GalNAc(b1-3)Gal
# How it was run: as §1
binder,measurement,setting,value
B1,glycan array binding signal (z-score),[1],0.843
same,glycan array binding signal (z-score),[2],0.009
same,glycan array binding signal (z-score),[3],-0.474
same,glycan array binding signal (z-score),Fuc(a1-4)GlcNAc,-0.417
same,glycan array binding signal (z-score),Fuc(b1-3)GlcNAc,-0.359
same,glycan array binding signal (z-score),Gal(a1-2)Gal,-0.049
same,glycan array binding signal (z-score),Gal(a1-3)Gal,0.046
same,glycan array binding signal (z-score),Gal(a1-3)Gal(b1-3)GlcNAc,-0.284
same,glycan array binding signal (z-score),[4],-0.273
same,glycan array binding signal (z-score),[5],1.28
same,glycan array binding signal (z-score),[6],1.38
same,glycan array binding signal (z-score),[7],-0.676
same,glycan array binding signal (z-score),[8],0.946
same,glycan array binding signal (z-score),Gal(a1-3)Gal(b1-4)Glc,-0.39
same,glycan array binding signal (z-score),Gal(a1-3)Gal(b1-4)GlcNAc,-0.291
same,glycan array binding signal (z-score),[9],-0.305
same,glycan array binding signal (z-score),[10],0.291
same,glycan array binding signal (z-score),[11],-0.543
same,glycan array binding signal (z-score),[12],-0.203
same,glycan array binding signal (z-score),[13],-0.413
same,glycan array binding signal (z-score),[14],1.85
same,glycan array binding signal (z-score),Gal(a1-3)GalNAc,-0.186
same,glycan array binding signal (z-score),[15],-0.142
same,glycan array binding signal (z-score),[16],0.81
same,glycan array binding signal (z-score),Gal(a1-4)Gal(b1-4)Glc,-0.11
same,glycan array binding signal (z-score),Gal(a1-4)Gal(b1-4)GlcNAc,-0.025
same,glycan array binding signal (z-score),[17],1.12
same,glycan array binding signal (z-score),[18],-0.596
same,glycan array binding signal (z-score),Gal(a1-4)GlcNAc,-0.553
same,glycan array binding signal (z-score),Gal(a1-6)Glc,-0.189
same,glycan array binding signal (z-score),Gal(b1-2)Gal,-0.426
same,glycan array binding signal (z-score),Gal(b1-3)Gal,-0.189
same,glycan array binding signal (z-score),Gal(b1-3)Gal(b1-4)GlcNAc,0.148
same,glycan array binding signal (z-score),[19],0.853
same,glycan array binding signal (z-score),Gal(b1-3)GalNAc,-0.238
same,glycan array binding signal (z-score),[20],-0.379
same,glycan array binding signal (z-score),[21],-0.653
same,glycan array binding signal (z-score),Gal(b1-3)GalNAc(b1-3)Gal,-0.276

# For convenience, part of the list above:
binder,measurement,setting,value
B1,glycan array binding signal (z-score),[17],1.12
same,glycan array binding signal (z-score),[18],-0.596
same,glycan array binding signal (z-score),Gal(a1-4)GlcNAc,-0.553
